{"source": "patent US7348163B2", "about": "“Human GABAB receptor 1 promoters” (AstraZeneca AB, priority 1999, dated 2008)", "key": {"[1]": {"tested_on": "human GABAB receptor 1 promoter P1a", "assay": "Luciferase reporter assay of GABAB receptor 1 promoter P1a activity (pAM438, pAM436) in transfected ND7/23 cells", "assay_type": "cell-based", "settings": "concluding statement"}, "[2]": {"tested_on": "human GABAB receptor 1 promoter P1b", "assay": "Luciferase reporter assay of GABAB receptor 1 promoter P1b activity (pAM440) in transfected ND7/23 cells", "assay_type": "cell-based", "procedure": "Reporter constructs containing R1a and R1b promoter fragments were generated by PCR using plasmid pAM 364, containing genomic sequence covering the promoter regions, as template. PCR reaction was performed by standard procedure (Perkin Elmer). Briefly, an initial denaturation at 95° C. for 4 min was followed by 35 cycles of denaturation at 95° C. for 1 min, annealing at 60° C. for 1 min, elongation at 72° C. for 1 min and finally a 7 min elongation at 72° C. […]\nTo determine putative promoter activity, the reporter gene constructs were introduced into mammalian cells by transfection. […] Luciferase activity in cell extracts was measured in a Luciferase Assay System (Promega), where 40 μl of cell extracts was added to a 96-well plate (Maxisorp, Nunc) and mixed with 50 μl of luciferase substrate. Luciferase activity was then measured in a LUMIstar (BMG Lab technologies). As internal control for transfection efficiency, β-Galactosidase (β-Gal.) activity was measured in 96-well plate (Maxisorp, Nunc) using a β-Galactosidase Enzyme Assay (Promega) according to suppliers protocol.\nND7/23 cells (4×10^5) were transfected with promoter-luciferase constructs as described above. […] After incubation, cells were harvested and luciferase activity measured. Luciferase activity, minus background, is shown as arbitrary light units measured in 40 μl of cell extracts. […]"}}, "note": "For at least one compound, name, drawing or mass did not settle the structure."}
{"smiles": "C=C[C@@]1(C)CC(=O)[C@]2(O)[C@@]3(C)[C@@H](O)CCC(C)(C)[C@@H]3[C@H](O)[C@H](OC(C)=O)[C@@]2(C)O1", "note": "[forskolin]", "values": [{"measurement": "degree of P1a promoter activity", "setting": "[1]", "value": "can be modulated"}, {"measurement": "reporter expression originating from pAM440 (R1b)", "setting": "[2]; Forskolin 10 μM, 24 h, luciferase activity", "value": "can be induced"}, {"measurement": "degree of P1b promoter activity", "setting": "[2]; luciferase reporter, concluding statement", "value": "can be modulated"}]}
